Measured values taken from PMC4333378, “Human PrimPol is a highly error-prone polymerase regulated by single-stranded DNA binding proteins” (Nucleic Acids Research, 2014).
These are yes or no findings as the source states them, for the method shown. For some of these results: In cells and extracts the contact can be indirect. Some results given as binding are weak or reduced against the parent protein; the word gives no strength. For some of these results: Where a sequence is shown, tags or fusion partners need not be part of it.

Sequences of proteins named here, by UniProt entry; tags and fusion partners are left off. A change or cut given only in a name is not applied to a line headed by its entry. Residues count along the entry.
UniProt P15927: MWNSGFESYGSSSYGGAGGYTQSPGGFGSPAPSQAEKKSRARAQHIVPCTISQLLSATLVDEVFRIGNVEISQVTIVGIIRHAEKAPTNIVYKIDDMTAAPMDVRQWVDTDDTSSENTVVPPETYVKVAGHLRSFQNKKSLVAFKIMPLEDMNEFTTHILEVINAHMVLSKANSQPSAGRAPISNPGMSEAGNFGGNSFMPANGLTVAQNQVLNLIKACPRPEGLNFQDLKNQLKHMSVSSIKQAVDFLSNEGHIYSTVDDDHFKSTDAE
RPA32C^172–270 (winged-helix domain of RPA2): residues 172-270 of P15927
UniProt P12004: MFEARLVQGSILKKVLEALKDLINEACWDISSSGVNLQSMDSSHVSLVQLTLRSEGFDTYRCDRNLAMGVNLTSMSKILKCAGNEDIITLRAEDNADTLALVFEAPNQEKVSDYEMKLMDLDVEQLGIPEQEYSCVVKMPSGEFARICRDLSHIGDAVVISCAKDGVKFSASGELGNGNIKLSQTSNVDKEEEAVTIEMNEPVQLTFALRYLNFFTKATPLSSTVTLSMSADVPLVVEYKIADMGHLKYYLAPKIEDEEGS

T1: PrimPol^FlagStrep (Strep-tagged human PrimPol) (human) (UniProt Q96LW4)
T1 sequence: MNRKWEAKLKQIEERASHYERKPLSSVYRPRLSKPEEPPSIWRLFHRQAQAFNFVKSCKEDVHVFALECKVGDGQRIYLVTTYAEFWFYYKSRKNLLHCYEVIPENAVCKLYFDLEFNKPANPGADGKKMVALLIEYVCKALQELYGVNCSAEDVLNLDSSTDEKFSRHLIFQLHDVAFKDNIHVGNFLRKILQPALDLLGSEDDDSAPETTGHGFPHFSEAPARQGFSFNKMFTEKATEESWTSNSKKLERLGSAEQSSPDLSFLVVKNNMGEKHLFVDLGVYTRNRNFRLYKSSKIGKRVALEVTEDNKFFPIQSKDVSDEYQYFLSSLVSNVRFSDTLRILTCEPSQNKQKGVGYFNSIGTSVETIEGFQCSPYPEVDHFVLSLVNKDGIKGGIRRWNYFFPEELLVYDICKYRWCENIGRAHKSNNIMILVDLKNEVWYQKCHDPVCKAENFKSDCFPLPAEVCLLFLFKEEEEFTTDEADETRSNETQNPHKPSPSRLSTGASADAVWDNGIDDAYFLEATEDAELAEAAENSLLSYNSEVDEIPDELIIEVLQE


How the values were obtained:
[1] = biological target: T1, PrimPol^FlagStrep (Strep-tagged human PrimPol) (human); experiment: pull-down; small-scale Strep-Tactin affinity purification of PrimPol^FlagStrep from soluble lysate of Flp-In T-REx-293 cells with or without doxycycline (10 ng/ml, 24 h), stringent washing, western blot of the elutions
[2] = biological target: RPA32C^172–270 (winged-helix domain of RPA2) (human) (UniProt P15927); experiment: condition: 2-fold molar excess of unlabelled PrimPol; NMR titration; 15N-1H HSQC of 15N-enriched RPA domain (50 uM RPA70N) alone and with 2-fold molar excess (100 uM) of unlabelled PrimPol construct; 25°C; 20 mM HEPES, 80 mM NaCl, 2 mM DTT, 5% deuterium oxide, pH 7.1; both purified

| binding [1] | binding [2] | Molecule |
| --- | --- | --- |
| no binding |  | proliferating cell nuclear antigen (PCNA) (from UniProt P12004 1-261) |
| binds |  | RPA32 (replication protein A subunit 2) (from UniProt P15927 1-270) |
|  | no binding | full-length human PrimPol (recombinant) (enzyme, UniProt Q96LW4 1-560) MNRKWEAKLKQIEERASHYERKPLSSVYRPRLSKPEEPPSIWRLFHRQAQAFNFVKSCKEDVHVFALECKVGDGQRIYLVTTYAEFWFYYKSRKNLLHCYEVIPENAVCKLYFDLEFNKPANPGADGKKMVALLIEYVCKALQELYGVNCSAEDVLNLDSSTDEKFSRHLIFQLHDVAFKDNIHVGNFLRKILQPALDLLGSEDDDSAPETTGHGFPHFSEAPARQGFSFNKMFTEKATEESWTSNSKKLERLGSAEQSSPDLSFLVVKNNMGEKHLFVDLGVYTRNRNFRLYKSSKIGKRVALEVTEDNKFFPIQSKDVSDEYQYFLSSLVSNVRFSDTLRILTCEPSQNKQKGVGYFNSIGTSVETIEGFQCSPYPEVDHFVLSLVNKDGIKGGIRRWNYFFPEELLVYDICKYRWCENIGRAHKSNNIMILVDLKNEVWYQKCHDPVCKAENFKSDCFPLPAEVCLLFLFKEEEEFTTDEADETRSNETQNPHKPSPSRLSTGASADAVWDNGIDDAYFLEATEDAELAEAAENSLLSYNSEVDEIPDELIIEVLQE |
| binds |  | mitochondrial single-stranded DNA binding protein (mtSSB) (protein, UniProt Q04837 17-148) ESETTTSLVLERSLNRVHLLGRVGQDPVLRQVEGKNPVTIFSLATNEMWRSGDSEVYQLGDVSQKTTWHRISVFRPGLRDVAYQYVKKGSRIYLEGKIDYGEYMDKNNVRRQATTIIADNIIFLSDQTKEKE |
